Consider one molecule from patent US20060008801A1 (EFFECTOR CELL INSTITUTE, published 2006).

Sequences of proteins named here, by UniProt entry; tags and fusion partners are left off. A change or cut given only in a name is not applied to a line headed by its entry.
UniProt P41597: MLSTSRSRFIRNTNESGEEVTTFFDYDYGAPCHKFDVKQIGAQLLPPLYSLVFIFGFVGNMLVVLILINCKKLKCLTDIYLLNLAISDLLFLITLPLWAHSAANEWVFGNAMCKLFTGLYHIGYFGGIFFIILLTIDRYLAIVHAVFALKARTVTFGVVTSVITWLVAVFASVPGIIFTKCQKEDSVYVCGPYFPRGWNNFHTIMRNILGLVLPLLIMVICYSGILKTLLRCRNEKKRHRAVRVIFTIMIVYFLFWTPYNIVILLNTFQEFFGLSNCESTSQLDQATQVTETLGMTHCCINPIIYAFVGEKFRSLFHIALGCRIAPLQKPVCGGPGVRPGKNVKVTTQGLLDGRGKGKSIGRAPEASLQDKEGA

This assay concerns the target human CCR2 protein expressed in cells (transfected HEK293 cells; THP-1 cells) (human) (UniProt P41597). The assay can be described thus: fluorescence microscopy of HEK cells (colocalization).

These are yes or no findings as the source states them, for the method shown. Binding calls can cover weak binding; strength is not graded here. Sequences can lack the tags named with a protein.

B1: green fluorescent protein-fused FROUNT protein 1 (pEGFP-FROUNT), expressed in HEK293 cells (protein, not shown: large carriers)
chain: MYFDWGPGEMLVCETSFNKKEKSEMVPSCPFIYIIRKDVDVYSQILRKLFNESHGIFLGLQRIDEELTGKSRKSQLVRVSKNYRSVIRACMEEMHQVAIAAKDPANGRQFSSQVSILSAMELIWNLCEILFIEVAPAGPLLLHLLDWVRLHVCEVDSLSADVLGSENPSKHDSFWNLVTILVLQGRLDEARQMLSKEADASPASAGICRIMGDLMRTMPILSPGNTQTLTELELKWQHWHEECERYLQDSTFATSPHLESLLKIMLGDEAALLEQKELLSNWYHFLVTRLLYSNPTVKPIDLHYYAQSSLDLFLGGESSPEPLDNILLAAFEFDIHQVIKECSIALSNWWFVAHLTDLLDHCKLLQSHNLYFGSNMREFLLLEYASGLFAHPSLWQLGVDYFDYCPELGRVSLELHIERIPLNTEQKALKVLRICEQRQMTEQVRSICKILAMKAVRNNRLGSALSWSIRAKDAAFATLVSDRFLRDYCERGCFSDLDLIDNLGPAMMLSDRLTFLGKYREFHRMYGEKRFADAASLLLSLMTSRIAPRSFWMTLLTDALPLLEQKQVIFSAEQTYELMRCLEDLTSRRPVHGESDTEQLQDDDIETTKVEMLRLSLARNLARAIIREGSLEGS
With B1, the binding result is on record as “binds”.
